Laboratory results: PMC10265003 (Royal Society Open Science, 2023)
Strings that start with PEPTIDE1 are HELM notation: dots part the residues, brackets hold end groups and non-standard residues.

Experiment: general procedure: Fmoc solid-phase peptide synthesis; Rink amide resin; DCC/6-Cl-HOBt
Settings: whole synthesis, scale of the general procedure 0.1 g resin; for final HPLC purity: 210 nm

Substance	final HPLC purity [%]	difficulty met	isolated yield [%]
(RRWQWR-2-Abz-KKLG)2-K-Ahx	76	difficulty of quantitatively completing the incorporation of the unnatural amino acid	68
(RRWQWR-4-Abz-KKLG)2-K-Ahx	74	difficulty of quantitatively completing the incorporation of the unnatural amino acid	38
PEPTIDE1{R.R.W.Q.W.R.F.K.K.L.G.K.[Ahx].[am]}|PEPTIDE2{R.R.W.Q.W.R.F.K.K.L.G}$PEPTIDE2,PEPTIDE1,11:R2-12:R3$$$V2.0	95		82
PEPTIDE1{R.R.W.Q.W.R.[1-Nal].K.K.L.G.K.[Ahx].[am]}|PEPTIDE2{R.R.W.Q.W.R.[1-Nal].K.K.L.G}$PEPTIDE2,PEPTIDE1,11:R2-12:R3$$$V2.0	91		82
PEPTIDE1{R.R.W.Q.W.R.[Bpa].K.K.L.G.K.[Ahx].[am]}|PEPTIDE2{R.R.W.Q.W.R.[Bpa].K.K.L.G}$PEPTIDE2,PEPTIDE1,11:R2-12:R3$$$V2.0	76	difficulty of quantitatively completing the incorporation of the unnatural amino acid	68
PEPTIDE1{R.R.W.Q.W.R.[Dip].K.K.L.G.K.[Ahx].[am]}|PEPTIDE2{R.R.W.Q.W.R.[Dip].K.K.L.G}$PEPTIDE2,PEPTIDE1,11:R2-12:R3$$$V2.0	86	difficulty of quantitatively completing the incorporation of the unnatural amino acid	86
PEPTIDE1{R.R.W.Q.W.R.[hF].K.K.L.G.K.[Ahx].[am]}|PEPTIDE2{R.R.W.Q.W.R.[hF].K.K.L.G}$PEPTIDE2,PEPTIDE1,11:R2-12:R3$$$V2.0	94		74
